Earlier results as cited in patent publication US20030021772A1 (priority 2001, published 2003).
Some of these results come from one statement about several compounds together. For at least one compound, name, drawing or mass did not settle the structure.

System: patients with Parkinson's disease
Details: applied intravenously, U.S. Pat. Nos. 4,970,200 and 5,019,561; cited from earlier work

NC(=O)C1=CN([C@@H]2O[C@H](COP(=O)(O)OP(=O)(O)OC[C@H]3O[C@@H](n4cnc5c(N)ncnc54)[C@H](O)[C@@H]3O)[C@@H](O)[C@H]2O)C=CC1 [NADH, reduced nicotinamide adenine dinucleotide]
duration of beneficial effect: at least 24 hours
